Test results taken from US20240360226A1 (AstraZeneca / MedImmune, published 2024).
No constants are given. Whether binding was seen depends on the method and setting. Some binding calls cover weakened binding; strength is not graded here.

Assays:
[1] = biological target: Mouse EGFR (recombinant, soluble monomeric) (mouse) (UniProt Q01279); assay: ELISA, coated antigen (FIG. 3A legend)
[2] = biological target: Cynomolgus monkey EGFR (recombinant, soluble monomeric) (cynomolgus monkey); assay: ELISA, coated antigen (FIG. 3A legend)
[3] = biological target: Human EGFR (recombinant, soluble monomeric) (human) (UniProt P00533); assay: ELISA, coated antigen (FIG. 3A legend)
[4] = biological target: Cynomolgus monkey EGFR (recombinant, soluble monomeric) (cynomolgus monkey); assay: ELISA screen of mutagenised libraries expressed as bacterial Fab fragments, cynomolgus EGFR
[5] = biological target: Human EGFR (recombinant, soluble monomeric) (human) (UniProt P00533); assay: ELISA screen of mutagenised libraries expressed as bacterial Fab fragments, human EGFR
[6] = biological target: Mouse EGFR (recombinant, soluble monomeric) (mouse) (UniProt Q01279); assay: ELISA, antigen coated at 1 ug/mL, anti-human Fab-HRP detection, A450
[7] = biological target: Cynomolgus monkey EGFR (recombinant, soluble monomeric) (cynomolgus monkey); assay: as above
[8] = biological target: Human EGFR (recombinant, soluble monomeric) (human) (UniProt P00533); assay: as above
[9] = biological target: Mouse EGFR (recombinant, soluble monomeric) (mouse) (UniProt Q01279); assay: ELISA, antigen coated at 1 µg/mL, antibody titrated from 10 µg/mL, anti-human Fab-HRP detection
[10] = biological target: Cynomolgus monkey EGFR (recombinant, soluble monomeric) (cynomolgus monkey); assay: as above
[11] = biological target: Human EGFR (recombinant, soluble monomeric) (human) (UniProt P00533); assay: as above

Measured: binding

B1: RAA22 IgG (antibody, V domains shown)
VH: QVQLVQSGAEVKKPGSSVKVSCKASGGTFSDNDFSWVRQAPGQGLEWMGAIVAVFRTETYAQKFQDRVKITADISTRTTYMELSSLRSEDTAVYYCARRLMSAISGPGAPLLMWGQGTLVTVSS
VL: QSALTQPRSVSGSPGQSVTISCTGTSSDVGGYNYVSWYQQHPGKAPKLMIYDVSKRPSGVPDRFSGSKSGNTASLTISGLQAEDEADYYCSSYTSSDTLEIFGGGTKLTVL
notes: Bivalent parental IgG; Only the variable domains are tied to the parental IgG; also called anti-EGFR antibody clone RAA22
binds: all assays above
